{
  "sequences": {"note": "Amino acid sequences for entries named in this document (tags omitted). Residues count along the entry.", "UniProt P18031, 1-321 limits assumed": "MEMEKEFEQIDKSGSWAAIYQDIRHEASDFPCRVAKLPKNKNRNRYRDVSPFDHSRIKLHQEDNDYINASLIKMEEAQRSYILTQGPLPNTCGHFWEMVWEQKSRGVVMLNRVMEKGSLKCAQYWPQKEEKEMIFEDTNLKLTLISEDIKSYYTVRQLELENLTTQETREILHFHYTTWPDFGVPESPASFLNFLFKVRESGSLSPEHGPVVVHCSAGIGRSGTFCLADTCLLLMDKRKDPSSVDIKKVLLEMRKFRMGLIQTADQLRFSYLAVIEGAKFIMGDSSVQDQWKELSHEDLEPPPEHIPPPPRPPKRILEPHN"},
  "source": "patent US20060135483A1",
  "about": "“Oxygen/nitrogen heterocycle inhibitors of tyrosine phosphatases” (priority 2004, published 2006)",
  "target": "PTP-1B (Homo sapiens, UniProt P18031)",
  "assay": "pNPP assay for tyrosine phosphatase inhibitory activity",
  "details": "Table 2; pNPP substrate 10 mM, 30° C., 10 minutes, absorbance at 405 nm",
  "protocol": "The compounds provided herein are evaluated for biological activity as inhibitors of PTP-1B using, for example, a pNPP assay. Such an assay can be used to screen compounds for tyrosine phosphatase inhibitory activity as shown in Example 39.\nA 5× stock of pNPP (p-nitrophenol phosphate) substrate is prepared as 50 mM pNPP in assay buffer. […]\nThe compound to be tested is prepared as 1:16.7 and 1:50 dilutions from stock in a total volume of 1 00:M DMSO to give final concentrations of 626 and 200:M. The reaction mixtures are prepared in a 96-well microtiter plate (on ice) as 55:L assay buffer, 5:L of the diluted compound (to a final concentration of 31.3 and 10:M), 20:L of the pNPP substrate solution (to a final concentration of 10 mM) and 20:L PTPase in assay buffer. […] The reaction is then terminated by adding 1 OO:L of 2M K2CO3 per well, and the absorbance is measured at 405 nm by conventional means.\nUnless otherwise indicated, this assay was used to determine activity for the selected compounds whose activity is recorded in Table 1 and Table 2.",
  "note": "The match of structure and compound is tentative.",
  "data": [
    {"smiles": "NC(=O)CSc1ccc(-c2cnc(N(Cc3ccc(C(F)(F)P(=O)(O)O)c(Br)c3)c3ccccc3)o2)cc1", "values": [
      {"measurement": "IC50", "value": "< 0.1", "unit": "µM"}
    ]}
  ]
}
